Experimental data taken from PMC5758809.
No constants are given. Whether binding was seen depends on the method and setting. A result given as binding can be weak or reduced; the word gives no strength.

Columns and labels:
[1] = biological target: T1, non-phosphorylated form of inhibitor-1 (human) (UniProt Q13522); assay: NMR titration; 1H-15N HSQC of 15N-labeled non-phosphorylated inhibitor-1 (8.0 uM) without and with unlabeled recombinant PP1 (8.0 uM), pH 6.0, 293 K, 500 MHz; both purified
T1 sequence: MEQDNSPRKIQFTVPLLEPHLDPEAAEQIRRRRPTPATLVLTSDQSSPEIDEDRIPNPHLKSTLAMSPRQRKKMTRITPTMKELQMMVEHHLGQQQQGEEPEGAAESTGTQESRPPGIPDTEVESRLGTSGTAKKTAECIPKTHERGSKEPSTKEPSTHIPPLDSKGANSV

[2] = biological target: T2, PKA-thiophosphorylated form of inhibitor-1 (human) (UniProt Q13522); assay: NMR titration; 1H-15N HSQC of 15N-labeled PKA-thiophosphorylated inhibitor-1 (40 uM) titrated with unlabeled recombinant PP1 (6.0 uM and 8.5 uM), pH 6.0, 293 K; inhibitor-1 is dephosphorylated by PP1 during the experiment; both purified
T2 sequence (chain, thiophosphorylated Thr35): T1 sequence

recombinant PP1 (enzyme) was tested, and the binding [1] was “binds weakly” and the binding [2] was “binds”.
